From PubChem BioAssay record AID912 (NCATS, 2007).

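A cell-based FRET test of anthrax lethal toxin entry, tracked through the 460 nm emission signal; the cell line is not named here.
Each compound was tested as a concentration series from about 0.0005 to 40 µM.
The number is the fitted AC50 of the 460 nm signal alone; lower values mean a more potent effect. A falling signal goes with compounds filed as inhibitors or cytotoxic, a rising one with activators or fluorescent compounds (inferred from the filed classes).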

Values are in µM.
Common to all entries: measured here: 460 nm channel.
This is a side read-out of the assay, for part of the compounds, not drawn at random.
Potencies fitted to partial, single-point or poorly fitting curves are rough.
The first word of each remark tells which way the curve ran; it can be opposite to the aim of the assay.

With O/N=C(\c1ccc(Cl)cc1)c1cc2ccccc2o1 the assay gave AC50 12.59 µM (falling, partial curve). With C=C(C)COc1ccc(-c2nc(N)ncc2Oc2ccc(OC)cc2)c(O)c1 the assay gave AC50 6.31 µM (falling, partial curve). COc1ccc(Cl)cc1-c1nc(-c2ccc(NC(=O)c3ccncc3)cc2)no1 gave AC50 0.02512 µM (falling, full curve, poor fit). CC(=O)CC(=O)NC(=NC1CCCCC1)Nc1nc(C)cc(C)n1 read AC50 0.1585 µM (falling, full curve).

Cc1c(C(=O)NC2CCCCC2)sc2nc3ccc(N)cc3n12 read AC50 3.162 µM (rising, single point). Cc1cccc(N=c2oc3cc(O)ccc3cc2C(N)=O)c1 gave AC50 3.162 µM (rising, partial curve). Result for Cc1cc2c(C)cc(=O)oc2c2c1NCCC2 was AC50 10 µM (rising, partial curve). With O=C1OCC(Cn2c3ccccc3c3ccccc32)O1 (stereo not drawn) the assay gave AC50 15.85 µM (falling, partial curve, poor fit).

Result for COc1ccc(-n2c(Cc3cccn3C)nnc2SCC(=O)Nc2ccc(Cl)cc2)cc1 was AC50 12.59 µM (falling, partial curve). Result for O=C(c1ccc(COc2ccccc2Cl)o1)N1CCN(c2ccccc2)CC1 was AC50 25.12 µM (falling, partial curve). With Cc1cnc(NC(=O)CSc2nnc(-c3ccncc3)n2C2CCCCC2)s1 the assay gave AC50 0.02512 µM (falling, full curve, poor fit). COc1cc2cc3c4c(cc(OC)c(OC)c4c2cc1OC)CCN3C read AC50 31.62 µM (falling, partial curve).

For O=C1Nc2ccccc2C(O)(C(=O)NCc2ccco2)N1c1ccc(Cl)cc1 (stereo not drawn) the result was AC50 3.162 µM (falling, partial curve). CCOC(=O)C1CCN(C(=O)CN(c2ccc(OC)c(OC)c2)S(=O)(=O)c2ccccc2)CC1 gave AC50 5.012 µM (rising, partial curve). With Clc1ccc(Nc2ncnc3c2cnn3-c2ccccc2)cc1 the assay gave AC50 12.59 µM (falling, partial curve). CCOC(=O)Cn1nnnc1C(CC)N(Cc1cccs1)Cc1cc2ccc(OC)cc2[nH]c1=O (stereo not drawn) read AC50 15.85 µM (rising, single point).

COC(=O)[C@@H](N)CCCN=C(N)N[N+](=O)[O-] read AC50 2.512 µM (falling, full curve). Result for CCOc1cc(C2C3=C(CCCC3=O)NC3=C2C(=O)CCC3)ccc1OCCO was AC50 5.012 µM (rising, single point). Result for O=S1(=O)CCN2C(Cc3ccc(SC(F)F)cc3)=CSC2=N1 was AC50 5.012 µM (rising, single point). Result for Cc1cccc(NC(=O)CSc2nnc([C@@H](N)Cc3c[nH]c4ccccc34)o2)c1C was AC50 7.943 µM (rising, full curve).

CCOC(=O)N1CCC(Nc2cccc(SC)c2)CC1 read AC50 31.62 µM (falling, single point). With CNC(=O)c1cc2c(=O)n3cc(C)ccc3nc2n(Cc2ccco2)c1=N the assay gave AC50 7.943 µM (falling, partial curve). Cn1c(=O)c(-c2ccc(Cl)cc2)nc2cnc(Oc3ccccc3)nc21 gave AC50 10 µM (rising, partial curve). O=C(Nc1ccc(C(=O)Nc2ccc(C(=O)Nc3ccc(S(=O)(=O)O)c4cc(S(=O)(=O)O)cc(S(=O)(=O)O)c34)cc2)cc1)Nc1ccc(C(=O)Nc2ccc(C(=O)Nc3ccc(S(=O)(=O)O)c4cc(S(=O)(=O)O)cc(S(=O)(=O)O)c34)cc2)cc1 read AC50 15.85 µM (falling, partial curve).

For CCCc1cc2c(n1Cc1ccc(C)cc1)C(C)C1CN(C(=O)c3ccccc3)C(C)(C(=O)OC)C21 (stereo not drawn) the result was AC50 2.512 µM (rising, full curve). With O=C(OCCN1CCCCC1)c1c[nH]c2ccccc12 the assay gave AC50 3.981 µM (falling, full curve, poor fit).

The first 2 entries again:

SMILES	AC50 (µM)	remark
O/N=C(\c1ccc(Cl)cc1)c1cc2ccccc2o1	12.59	falling, partial curve
C=C(C)COc1ccc(-c2nc(N)ncc2Oc2ccc(OC)cc2)c(O)c1	6.31	falling, partial curve